Assay results taken from the supplement of paper PMC10849652.
The other results are listed elsewhere or left out.

Protein sequences, listed by entry. Tags and fused reporters are not part of them. Lines headed by an entry give the natural chain unless they say otherwise; changes in a name come on top.
UniProt Q9BTC0, whole entry, looked up: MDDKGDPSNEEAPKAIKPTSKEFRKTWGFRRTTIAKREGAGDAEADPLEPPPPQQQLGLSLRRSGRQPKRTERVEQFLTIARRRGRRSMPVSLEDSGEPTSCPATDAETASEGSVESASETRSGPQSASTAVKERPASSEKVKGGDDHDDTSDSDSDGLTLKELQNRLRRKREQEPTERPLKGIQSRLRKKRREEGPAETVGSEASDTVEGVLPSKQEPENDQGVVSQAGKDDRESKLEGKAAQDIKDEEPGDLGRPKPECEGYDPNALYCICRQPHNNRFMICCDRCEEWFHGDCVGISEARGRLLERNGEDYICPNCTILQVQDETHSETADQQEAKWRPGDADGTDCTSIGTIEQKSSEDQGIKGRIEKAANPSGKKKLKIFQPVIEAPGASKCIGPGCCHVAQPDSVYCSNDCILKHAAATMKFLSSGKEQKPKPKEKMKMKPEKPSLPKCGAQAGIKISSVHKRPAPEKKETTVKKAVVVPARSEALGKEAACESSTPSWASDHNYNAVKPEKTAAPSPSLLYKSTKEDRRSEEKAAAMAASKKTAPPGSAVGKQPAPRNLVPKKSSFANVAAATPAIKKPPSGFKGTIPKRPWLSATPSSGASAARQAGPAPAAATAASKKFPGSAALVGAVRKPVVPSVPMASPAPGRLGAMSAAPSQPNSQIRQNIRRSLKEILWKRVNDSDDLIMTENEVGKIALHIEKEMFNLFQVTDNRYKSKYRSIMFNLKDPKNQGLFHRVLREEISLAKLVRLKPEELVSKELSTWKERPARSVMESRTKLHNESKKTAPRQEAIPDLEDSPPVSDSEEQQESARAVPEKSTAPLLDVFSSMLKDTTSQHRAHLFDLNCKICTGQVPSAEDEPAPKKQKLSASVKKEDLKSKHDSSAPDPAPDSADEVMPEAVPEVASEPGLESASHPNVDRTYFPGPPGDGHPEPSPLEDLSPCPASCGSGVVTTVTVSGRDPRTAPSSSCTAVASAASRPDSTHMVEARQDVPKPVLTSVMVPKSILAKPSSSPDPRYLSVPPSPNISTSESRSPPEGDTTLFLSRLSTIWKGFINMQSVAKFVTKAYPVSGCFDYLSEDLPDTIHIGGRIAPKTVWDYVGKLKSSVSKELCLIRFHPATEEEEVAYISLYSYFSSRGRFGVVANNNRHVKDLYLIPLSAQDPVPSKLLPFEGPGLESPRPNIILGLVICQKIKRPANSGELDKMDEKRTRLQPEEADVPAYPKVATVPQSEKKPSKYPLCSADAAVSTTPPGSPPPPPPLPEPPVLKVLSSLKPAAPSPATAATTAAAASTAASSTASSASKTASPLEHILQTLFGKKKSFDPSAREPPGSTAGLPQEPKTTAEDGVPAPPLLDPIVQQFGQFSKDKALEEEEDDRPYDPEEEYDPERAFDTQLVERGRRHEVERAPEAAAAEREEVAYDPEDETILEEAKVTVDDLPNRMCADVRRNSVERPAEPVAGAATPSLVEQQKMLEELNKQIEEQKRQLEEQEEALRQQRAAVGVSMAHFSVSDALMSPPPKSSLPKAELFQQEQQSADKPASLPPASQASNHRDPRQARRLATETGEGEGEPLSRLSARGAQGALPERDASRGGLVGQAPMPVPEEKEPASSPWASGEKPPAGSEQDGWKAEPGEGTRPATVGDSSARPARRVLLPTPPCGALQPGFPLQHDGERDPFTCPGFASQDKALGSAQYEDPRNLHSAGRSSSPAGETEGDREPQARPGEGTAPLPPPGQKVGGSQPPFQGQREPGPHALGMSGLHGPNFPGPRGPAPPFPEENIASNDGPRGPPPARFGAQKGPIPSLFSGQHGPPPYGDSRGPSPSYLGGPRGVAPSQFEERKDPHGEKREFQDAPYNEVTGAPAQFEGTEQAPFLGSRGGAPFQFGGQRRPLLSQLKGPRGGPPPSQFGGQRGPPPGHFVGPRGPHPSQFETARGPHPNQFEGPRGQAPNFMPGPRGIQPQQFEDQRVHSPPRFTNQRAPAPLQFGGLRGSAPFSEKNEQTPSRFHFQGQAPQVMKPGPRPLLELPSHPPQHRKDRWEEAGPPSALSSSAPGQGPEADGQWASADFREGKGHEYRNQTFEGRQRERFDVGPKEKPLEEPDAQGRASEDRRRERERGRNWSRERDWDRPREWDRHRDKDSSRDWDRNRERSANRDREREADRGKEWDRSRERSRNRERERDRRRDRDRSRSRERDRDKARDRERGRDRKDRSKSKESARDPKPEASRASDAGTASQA
UniProt P30046: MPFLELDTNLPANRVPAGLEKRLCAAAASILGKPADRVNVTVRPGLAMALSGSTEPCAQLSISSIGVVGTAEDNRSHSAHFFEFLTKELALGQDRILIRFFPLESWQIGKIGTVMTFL
UniProt P0CG22: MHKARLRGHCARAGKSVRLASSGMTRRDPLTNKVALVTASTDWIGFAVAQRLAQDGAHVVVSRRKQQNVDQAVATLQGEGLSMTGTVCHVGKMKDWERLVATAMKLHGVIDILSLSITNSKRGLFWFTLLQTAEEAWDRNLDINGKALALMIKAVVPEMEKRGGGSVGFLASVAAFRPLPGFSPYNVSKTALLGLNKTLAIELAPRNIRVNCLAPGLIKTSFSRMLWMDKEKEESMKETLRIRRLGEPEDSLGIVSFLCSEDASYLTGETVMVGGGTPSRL
UniProt Q6UX07: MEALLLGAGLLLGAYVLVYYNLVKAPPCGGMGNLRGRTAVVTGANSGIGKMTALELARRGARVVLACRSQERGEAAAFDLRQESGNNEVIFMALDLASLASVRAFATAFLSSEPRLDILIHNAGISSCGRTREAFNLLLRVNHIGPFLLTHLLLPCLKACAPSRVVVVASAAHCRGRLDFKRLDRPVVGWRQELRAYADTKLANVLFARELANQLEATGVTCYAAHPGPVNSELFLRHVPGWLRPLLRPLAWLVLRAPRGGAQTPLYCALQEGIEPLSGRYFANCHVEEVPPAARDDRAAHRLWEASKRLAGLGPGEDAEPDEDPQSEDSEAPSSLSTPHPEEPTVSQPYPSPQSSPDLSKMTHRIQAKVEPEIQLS
UniProt Q9UBM7: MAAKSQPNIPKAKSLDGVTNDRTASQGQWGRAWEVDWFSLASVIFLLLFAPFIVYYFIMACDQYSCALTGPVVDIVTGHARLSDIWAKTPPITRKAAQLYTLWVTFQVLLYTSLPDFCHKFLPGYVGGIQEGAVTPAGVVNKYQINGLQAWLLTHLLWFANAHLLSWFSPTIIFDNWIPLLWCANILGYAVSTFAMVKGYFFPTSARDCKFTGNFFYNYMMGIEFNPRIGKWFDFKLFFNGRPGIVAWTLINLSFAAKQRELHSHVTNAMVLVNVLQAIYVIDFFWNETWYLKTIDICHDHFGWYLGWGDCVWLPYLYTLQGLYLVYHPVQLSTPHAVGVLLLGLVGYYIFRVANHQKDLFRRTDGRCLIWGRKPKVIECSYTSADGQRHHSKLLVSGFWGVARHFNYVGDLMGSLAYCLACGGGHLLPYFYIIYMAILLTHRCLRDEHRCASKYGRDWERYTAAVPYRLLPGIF
UniProt O00148, whole entry, looked up: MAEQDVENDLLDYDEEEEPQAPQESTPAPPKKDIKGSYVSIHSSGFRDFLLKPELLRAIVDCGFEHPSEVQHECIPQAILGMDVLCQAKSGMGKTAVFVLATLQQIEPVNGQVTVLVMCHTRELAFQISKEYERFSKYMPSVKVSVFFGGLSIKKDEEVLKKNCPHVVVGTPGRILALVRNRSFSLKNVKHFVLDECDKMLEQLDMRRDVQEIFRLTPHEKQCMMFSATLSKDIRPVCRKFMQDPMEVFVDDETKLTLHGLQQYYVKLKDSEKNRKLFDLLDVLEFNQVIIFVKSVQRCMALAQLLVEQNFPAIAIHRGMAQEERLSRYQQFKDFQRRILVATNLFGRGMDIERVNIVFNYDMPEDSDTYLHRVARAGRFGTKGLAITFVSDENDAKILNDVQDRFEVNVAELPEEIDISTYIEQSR
UniProt Q9NW81: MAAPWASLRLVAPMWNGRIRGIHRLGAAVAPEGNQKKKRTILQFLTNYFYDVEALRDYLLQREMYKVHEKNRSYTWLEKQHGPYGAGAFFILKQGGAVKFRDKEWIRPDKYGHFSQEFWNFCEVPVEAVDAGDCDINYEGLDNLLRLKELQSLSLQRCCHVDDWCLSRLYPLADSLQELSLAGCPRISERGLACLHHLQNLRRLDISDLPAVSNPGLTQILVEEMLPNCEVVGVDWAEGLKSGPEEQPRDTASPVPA
UniProt Q9NUI1: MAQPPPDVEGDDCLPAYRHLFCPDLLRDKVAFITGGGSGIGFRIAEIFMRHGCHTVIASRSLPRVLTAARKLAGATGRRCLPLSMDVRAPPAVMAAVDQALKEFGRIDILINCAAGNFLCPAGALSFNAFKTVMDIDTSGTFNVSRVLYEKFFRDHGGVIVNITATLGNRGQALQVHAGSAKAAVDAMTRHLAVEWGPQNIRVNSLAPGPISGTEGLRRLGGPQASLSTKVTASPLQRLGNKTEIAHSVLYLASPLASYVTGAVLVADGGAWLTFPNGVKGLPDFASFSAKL
UniProt Q9BUQ8: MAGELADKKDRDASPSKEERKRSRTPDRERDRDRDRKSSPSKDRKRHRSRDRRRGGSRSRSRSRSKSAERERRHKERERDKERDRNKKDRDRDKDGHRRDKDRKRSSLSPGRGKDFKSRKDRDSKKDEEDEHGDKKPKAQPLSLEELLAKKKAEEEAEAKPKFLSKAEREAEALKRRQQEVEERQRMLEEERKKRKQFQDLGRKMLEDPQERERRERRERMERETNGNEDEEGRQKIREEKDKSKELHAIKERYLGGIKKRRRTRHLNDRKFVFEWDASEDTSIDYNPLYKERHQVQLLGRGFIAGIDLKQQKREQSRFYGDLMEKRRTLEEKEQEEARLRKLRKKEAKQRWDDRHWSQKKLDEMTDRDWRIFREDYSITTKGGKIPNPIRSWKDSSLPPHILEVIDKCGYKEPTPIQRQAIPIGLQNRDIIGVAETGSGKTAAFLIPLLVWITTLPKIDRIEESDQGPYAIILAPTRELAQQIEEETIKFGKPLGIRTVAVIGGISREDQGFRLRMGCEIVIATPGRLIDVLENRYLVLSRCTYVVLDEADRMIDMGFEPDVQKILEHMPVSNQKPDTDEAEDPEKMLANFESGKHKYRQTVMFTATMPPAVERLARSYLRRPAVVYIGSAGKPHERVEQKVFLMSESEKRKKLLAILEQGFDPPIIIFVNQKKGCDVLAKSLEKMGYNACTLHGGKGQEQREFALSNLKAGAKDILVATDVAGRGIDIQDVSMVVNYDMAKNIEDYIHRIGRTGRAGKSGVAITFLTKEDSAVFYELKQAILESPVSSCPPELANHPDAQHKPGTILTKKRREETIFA
UniProt Q9H0S4: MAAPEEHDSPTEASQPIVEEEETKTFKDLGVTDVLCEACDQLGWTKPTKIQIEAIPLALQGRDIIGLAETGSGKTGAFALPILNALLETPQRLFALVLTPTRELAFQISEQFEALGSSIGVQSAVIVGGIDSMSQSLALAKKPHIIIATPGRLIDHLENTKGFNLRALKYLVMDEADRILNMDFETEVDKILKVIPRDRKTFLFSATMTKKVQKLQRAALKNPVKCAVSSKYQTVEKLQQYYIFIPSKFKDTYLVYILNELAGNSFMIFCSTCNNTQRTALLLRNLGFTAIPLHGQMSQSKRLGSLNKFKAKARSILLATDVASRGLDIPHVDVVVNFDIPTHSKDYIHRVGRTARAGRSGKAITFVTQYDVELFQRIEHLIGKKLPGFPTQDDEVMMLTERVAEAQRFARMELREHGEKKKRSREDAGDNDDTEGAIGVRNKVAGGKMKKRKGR
UniProt Q08495: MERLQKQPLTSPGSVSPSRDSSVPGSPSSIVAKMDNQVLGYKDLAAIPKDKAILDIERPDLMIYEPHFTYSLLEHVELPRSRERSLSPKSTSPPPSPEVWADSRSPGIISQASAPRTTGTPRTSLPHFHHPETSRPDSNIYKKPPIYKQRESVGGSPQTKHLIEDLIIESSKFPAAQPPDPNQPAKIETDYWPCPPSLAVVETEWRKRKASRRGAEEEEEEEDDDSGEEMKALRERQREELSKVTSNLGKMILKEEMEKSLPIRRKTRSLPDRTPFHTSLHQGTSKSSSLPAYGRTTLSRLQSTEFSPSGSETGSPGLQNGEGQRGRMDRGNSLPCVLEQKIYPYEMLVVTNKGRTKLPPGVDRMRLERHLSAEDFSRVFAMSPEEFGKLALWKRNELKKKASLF
UniProt Q92466: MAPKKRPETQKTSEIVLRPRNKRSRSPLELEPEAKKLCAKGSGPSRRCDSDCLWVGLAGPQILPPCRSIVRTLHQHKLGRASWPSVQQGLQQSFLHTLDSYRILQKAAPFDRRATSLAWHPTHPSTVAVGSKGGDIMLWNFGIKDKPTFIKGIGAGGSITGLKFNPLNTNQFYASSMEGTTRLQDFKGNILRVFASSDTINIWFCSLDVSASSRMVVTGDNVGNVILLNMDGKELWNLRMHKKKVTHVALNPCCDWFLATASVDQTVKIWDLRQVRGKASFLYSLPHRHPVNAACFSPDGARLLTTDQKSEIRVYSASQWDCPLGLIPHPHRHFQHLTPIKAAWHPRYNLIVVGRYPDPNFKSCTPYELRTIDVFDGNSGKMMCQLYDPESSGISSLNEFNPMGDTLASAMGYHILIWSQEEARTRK

Legend:
Experiment in all cases: log2 fold change, soluble protein after heating vs DMSO (PISA); higher = thermal stabilisation; K562 cells, 10 uM, 30 min; active = over 0.2 and 3.5 SD of the protein, either way, in both replicates (recomputed)
[1] = compound: COC1=CC=C(C=C1)CN2C=CC3=C2C=C(C=C3)C(=O)NO
In short: (§1)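 K562 cells at 2×10^6 cells/mL were exposed to 10 μM compound for 30 min, then aliquots were heated for 3 min across 48°C-58°C, pooled, and extracted in PBS containing 0.5% NP-40 at 4°C. The supernatant after 21,000xg for 90 min was taken as soluble protein and measured by TMTpro 16plex LC-MS/MS with channel sums equalised. Thermal stability is reported relative to control samples, with values from duplicates. Fold changes are given on a log2 scale.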

filanesib = compound: CON(C)C(=O)N1N=C(c2cc(F)ccc2F)S[C@@]1(CCCN)c1ccccc1 [filanesib]
In short: as §1

zotarolimus = compound: CO[C@H]1C[C@@H]2CC[C@@H](C)[C@@](O)(O2)C(=O)C(=O)N2CCCC[C@H]2C(=O)O[C@H]([C@H](C)C[C@@H]2CC[C@H](n3cnnn3)[C@H](OC)C2)CC(=O)[C@H](C)/C=C(\C)[C@@H](O)[C@@H](OC)C(=O)[C@H](C)C[C@H](C)/C=C/C=C/C=C/1C [zotarolimus]
In short: as §1

idasanutlin = compound: COc1cc(C(=O)O)ccc1NC(=O)[C@@H]1N[C@@H](CC(C)(C)C)[C@](C#N)(c2ccc(Cl)cc2F)[C@H]1c1cccc(Cl)c1F [idasanutlin]
In short: as §1

alisertib = compound: COc1cc(Nc2ncc3c(n2)-c2ccc(Cl)cc2C(c2c(F)cccc2OC)=NC3)ccc1C(=O)O [alisertib]
In short: as §1

[2] = compound: COc1cc2nc(-c3cc(F)ccc3O)nc(N[C@@H]3CNC[C@H]3C(C)(C)O)c2cc1OC
In short: as §1

[3] = compound: COc1cccc2cc(-c3nc([C@H]4CC[C@H](C(=O)O)CC4)n4ncnc(N)c34)[nH]c12
In short: as §1

lapatinib = compound: CS(=O)(=O)CCNCc1ccc(-c2ccc3ncnc(Nc4ccc(OCc5cccc(F)c5)c(Cl)c4)c3c2)o1 [lapatinib]
In short: as §1

pictilisib = compound: CS(=O)(=O)N1CCN(Cc2cc3nc(-c4cccc5[nH]ncc45)nc(N4CCOCC4)c3s2)CC1 [pictilisib]
In short: as §1

gefitinib = compound: COc1cc2ncnc(Nc3ccc(F)c(Cl)c3)c2cc1OCCCN1CCOCC1 [gefitinib]
In short: as §1

Measured: log2 fold change

DIDO1 (UniProt Q9BTC0)
inactive: [1] -0.011 | filanesib 0.143 | zotarolimus 0.048 | idasanutlin 0.103 | alisertib 0.378 | [2] -0.087 | [3] 0.031 | lapatinib 0.193 | pictilisib 0.087

DDT (UniProt P30046)
inactive: [1] -0.025 | filanesib -0.047 | zotarolimus 0.042 | idasanutlin -0.018 | alisertib -0.06 | [2] -0.095 | gefitinib 0.007 | [3] 0.003 | lapatinib -0.071 | pictilisib 0.01

DHRS4L1 (UniProt P0CG22)
inactive: [1] 0.017 | filanesib -0.061 | zotarolimus -0.017 | idasanutlin -0.096 | alisertib 0.051 | [2] 0.023 | gefitinib 0.032 | [3] 0.045 | lapatinib -0.069 | pictilisib 0.013

DHDDS isoform 2 (UniProt Q86SQ9)
inactive: [1] 0.038 | filanesib 0.066 | zotarolimus -0.009 | idasanutlin 0.002 | alisertib -0.036 | [2] 0.001 | gefitinib -0.001 | [3] -0.001 | lapatinib -0.005 | pictilisib 0.024

DHRS13 (UniProt Q6UX07)
inactive: [1] -0.096 | filanesib 0.298 | zotarolimus 0.271 | idasanutlin 0.057 | alisertib -0.011 | gefitinib 0.081 | [3] -0.002 | pictilisib 0.026

DHCR7 (UniProt Q9UBM7)
inactive: [1] -0.182 | filanesib -0.025 | zotarolimus -0.088 | idasanutlin -0.278 | alisertib 0.01 | [2] 0.101 | gefitinib 0.088 | [3] -0.167 | lapatinib -0.009 | pictilisib -0.115

DDX27 (UniProt Q96GQ7)
inactive: [1] 0.091 | filanesib 0.278 | zotarolimus 0.071 | idasanutlin 0.246 | alisertib 0.415 | gefitinib 0.044 | [3] -0.138 | pictilisib 0.061

DGCR2 (UniProt P98153)
inactive: [1] 0.005 | filanesib -0.01 | zotarolimus 0.009 | idasanutlin -0.049 | alisertib -0.113 | [2] 0.005 | gefitinib -0.096 | [3] 0.102 | lapatinib 0.006 | pictilisib 0.055

DDX1 (UniProt Q92499)
inactive: [1] 0.023 | filanesib 0.273 | zotarolimus 0.068 | idasanutlin 0.093 | alisertib -0.106 | [2] 0.048 | gefitinib -0.03 | [3] -0.218 | lapatinib 0.042 | pictilisib -0.008

DDX39A (UniProt O00148)
inactive: [1] 0.135 | filanesib -0.021 | zotarolimus -0.017 | idasanutlin -0.093 | alisertib 0.066 | [2] -0.16 | gefitinib -0.015 | [3] -0.028 | lapatinib -0.007 | pictilisib 0.012

DHX36 (UniProt Q9H2U1)
inactive: [1] 0.04 | filanesib 0.119 | zotarolimus 0.024 | idasanutlin 0.017 | alisertib 0.025 | [2] 0.017 | gefitinib -0.127 | [3] 0.059 | lapatinib 0.025 | pictilisib -0.038

DIPK2A (UniProt Q8NDZ4)
inactive: [1] 0.072 | filanesib 0.017 | zotarolimus -0.097 | idasanutlin 0.057 | gefitinib -0.004

DMAC2 isoform 4 (UniProt Q9NW81)
inactive: [1] 0.026 | filanesib 0.104 | zotarolimus -0.063 | idasanutlin -0.117 | alisertib -0.056 | [2] 0.031 | gefitinib -0.015 | [3] 0.038 | lapatinib 0.069 | pictilisib 0.031

DDX24 (UniProt Q9GZR7)
inactive: [1] -0.31 | filanesib 0.276 | zotarolimus 0.042 | idasanutlin 0.21 | alisertib -0.101 | [2] -0.029 | [3] 0.088 | lapatinib 0.101 | pictilisib -0.043

DECR2 (UniProt Q9NUI1)
inactive: [1] 0.112 | filanesib -0.097 | idasanutlin 0.016 | alisertib -0.001 | [2] 0.029 | gefitinib 0.049 | [3] 0.171 | lapatinib 0.028 | pictilisib -0.025

DDX42 (UniProt Q86XP3)
inactive: [1] 0.148 | filanesib 0.015 | zotarolimus 0.044 | idasanutlin -0.03 | [2] 0.055 | lapatinib -0.059 | pictilisib 0.067

DLG3 (UniProt Q92796)
inactive: [1] -0.112 | filanesib 0.06 | zotarolimus -0.03 | idasanutlin 0.013 | alisertib 0.096 | [2] 0.003 | gefitinib 0.058 | [3] -0.074 | lapatinib -0.121 | pictilisib 0.007

DIP2A (UniProt Q14689)
inactive: [1] -0.097 | filanesib 0.028 | zotarolimus -0.018 | idasanutlin -0.047 | alisertib 0.357 | [2] -0.098 | gefitinib 0.008 | [3] -0.004 | lapatinib -0.047 | pictilisib 0.103

DGAT1 (UniProt O75907)
inactive: [1] -0.063 | filanesib -0.006 | zotarolimus -0.038 | idasanutlin -0.047 | alisertib -0.053 | [2] -0.022 | gefitinib -0.064 | [3] 0.043 | lapatinib -0.001 | pictilisib 0.08

DDX23 (UniProt Q9BUQ8)
inactive: [1] -0.043 | filanesib 0.282 | zotarolimus -0.067 | idasanutlin 0.201 | alisertib -0.124 | [2] 0.058 | gefitinib -0.079 | [3] -0.057 | lapatinib 0.226 | pictilisib 0.095

DDX11 (UniProt Q96FC9)
inactive: [1] -0.069 | filanesib 0.144 | idasanutlin -0.05 | alisertib 0.088 | [2] 0.047 | gefitinib -0.009 | lapatinib -0.045
active: [3] 0.437

DNAAF2 (UniProt Q9NVR5)
inactive: [1] 0.009 | filanesib -0.012 | zotarolimus 0.016 | idasanutlin -0.033 | alisertib 0.005 | [2] 0.015 | gefitinib 0.035 | [3] 0.062 | lapatinib -0.026 | pictilisib 0.232

DDX18 (UniProt Q9NVP1)
inactive: [1] -0.153 | filanesib 0.163 | zotarolimus 0.17 | idasanutlin 0.049 | alisertib -0.146 | [3] -0.626 | pictilisib 0.043

DLG1 isoform 2 (UniProt Q12959)
inactive: [1] -0.018 | filanesib -0.033 | zotarolimus 0.034 | idasanutlin 0.098 | alisertib -0.043 | [2] -0.026 | gefitinib 0.028 | [3] 0.003 | lapatinib 0.062 | pictilisib -0.006

DDX19A (UniProt Q9NUU7)
inactive: [1] 0.019 | filanesib -0.069 | zotarolimus 0.033 | idasanutlin -0.087 | alisertib -0.03 | [2] -0.077 | gefitinib 0.014 | [3] 0.048 | lapatinib 0.085 | pictilisib -0.018

DENR (UniProt O43583)
inactive: [1] -0.035 | filanesib -0.015 | zotarolimus -0.015 | idasanutlin 0.009 | alisertib -0.088 | [2] -0.025 | gefitinib 0.015 | [3] -0.03 | lapatinib -0.002 | pictilisib 0.028

DDX47 (UniProt Q9H0S4)
inactive: [1] -0.064 | filanesib 0.326 | zotarolimus 0.061 | idasanutlin 0.189 | alisertib -0.125 | gefitinib -0.045 | [3] -0.319

DMTN isoform 2 (UniProt Q08495)
inactive: [1] -0.006 | gefitinib -0.168

DDB2 (UniProt Q92466)
inactive: filanesib -0.479 | zotarolimus -0.007 | idasanutlin 0.009 | alisertib -0.027 | [2] 0.002 | gefitinib -0.033 | [3] 0.063 | lapatinib 0.033 | pictilisib -0.034

2 entries drawn at random from those above, as already listed:
DDB2 (UniProt Q92466)
inactive: filanesib -0.479 | zotarolimus -0.007 | idasanutlin 0.009 | alisertib -0.027 | [2] 0.002 | gefitinib -0.033 | [3] 0.063 | lapatinib 0.033 | pictilisib -0.034

DDX19A (UniProt Q9NUU7)
inactive: [1] 0.019 | filanesib -0.069 | zotarolimus 0.033 | idasanutlin -0.087 | alisertib -0.03 | [2] -0.077 | gefitinib 0.014 | [3] 0.048 | lapatinib 0.085 | pictilisib -0.018

Remaining list, next part:

DGKA (UniProt P23743)
inactive: filanesib -0.277 | alisertib 0.472 | [2] 0.1 | [3] 0.226 | lapatinib 0.119

DEF6 (UniProt Q9H4E7)
inactive: [1] 0.027 | zotarolimus -0.305 | alisertib -0.054 | [3] -0.103
